In patent publication US8513232B2, “Substituted spirocyclic piperidine derivatives as histamine-3 (H3) receptor ligands” (Cephalon, Inc., priority 2008, dated 2013) one finds Ki data, which are given here for 1 compound.

The chains behind the UniProt entries cited, without tags or fusion partners.
UniProt Q9Y5N1, whole entry: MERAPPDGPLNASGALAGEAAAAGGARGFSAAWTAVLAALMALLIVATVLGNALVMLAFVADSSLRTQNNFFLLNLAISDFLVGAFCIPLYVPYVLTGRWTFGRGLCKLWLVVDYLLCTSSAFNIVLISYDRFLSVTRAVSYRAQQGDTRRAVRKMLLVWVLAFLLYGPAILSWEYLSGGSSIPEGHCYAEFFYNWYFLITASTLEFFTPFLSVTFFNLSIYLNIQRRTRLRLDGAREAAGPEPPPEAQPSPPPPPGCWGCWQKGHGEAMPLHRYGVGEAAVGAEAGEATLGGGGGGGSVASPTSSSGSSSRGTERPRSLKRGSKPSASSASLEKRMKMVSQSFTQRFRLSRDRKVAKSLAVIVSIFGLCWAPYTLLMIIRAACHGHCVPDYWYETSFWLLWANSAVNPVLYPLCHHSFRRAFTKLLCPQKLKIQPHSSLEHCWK
UniProt Q9QYN8, whole entry: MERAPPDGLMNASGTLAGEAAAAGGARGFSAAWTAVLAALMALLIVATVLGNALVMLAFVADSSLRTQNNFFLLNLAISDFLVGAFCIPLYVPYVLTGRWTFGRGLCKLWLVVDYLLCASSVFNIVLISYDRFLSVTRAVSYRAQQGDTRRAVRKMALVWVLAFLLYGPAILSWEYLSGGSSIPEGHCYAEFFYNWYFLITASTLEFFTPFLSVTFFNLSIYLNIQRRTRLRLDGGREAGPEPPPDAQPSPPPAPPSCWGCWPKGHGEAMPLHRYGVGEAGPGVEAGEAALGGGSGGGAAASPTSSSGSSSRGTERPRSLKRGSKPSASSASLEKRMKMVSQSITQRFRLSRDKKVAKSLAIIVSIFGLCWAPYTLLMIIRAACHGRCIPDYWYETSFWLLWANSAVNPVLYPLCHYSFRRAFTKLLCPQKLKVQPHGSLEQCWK

For one assay, the target named is human H3 receptor (Homo sapiens, UniProt Q9Y5N1). Put plainly: Human H3 radioligand binding ([3H]-N-alpha-methylhistamine, SPA). The settings on record: read-out: Human H3 Ki, Table D. Here is the method:
Methods: CHO cells stably expressing the human H3 receptor (GenBank: NM_007232) were harvested and cell pellets were frozen (−80° C.). Cell pellets were resuspended in 5 mM Tris-HCl, pH 7.5 with […] and a cocktail of protease inhibitors (Complete Protease Inhibitior Tablets, Roche Diagnostics). Cells were disrupted using a polytron cell homogenizer and the suspension was centrifuged at 1000×g for 10 minutes at 4° C. The pellet was discarded and the supernatant centrifuged at 40,000×g for 30 min at 4° C. This membrane pellet was washed in membrane buffer containing 50 mM Tris-HCl, pH 7.5 with 0.6 mM EDTA, 5 mM MgCl2 and protease inhibitors, recentrifuged as above and the final pellet resuspended in membrane buffer plus 250 mM sucrose and frozen at −80° C.
Radioligand Binding. Membranes were resuspended in 50 mM Tris HCl (pH 7.4), 5 mM MgCl2, 0.1% BSA. […] Non-specific binding was determined in the presence of 10 μM clobenpropit. Radioligand bound to receptor, and therefore in proximity to the scintillation beads, was measured using a MicroBeta scintillation counter.

Assay [1] addresses rat histamine H3 receptor (Rattus norvegicus, UniProt Q9QYN8). Put plainly: Rat H3 radioligand binding ([3H]-N-alpha-methylhistamine, SPA). The settings on record: read-out: Rat H3 Ki, Table D.

The structures appear in SMILES notation. Structures were worked out from names or drawings and are uncertain.

As to `O=C(c1ccc(-c2ccc3c(c2)COC2(CCN(C4CCC4)CC2)O3)cc1Cl)N1CCOCC1`, the Ki (at human H3 receptor; in assay [1]) was below 200 nM in each case.
